Laboratory results taken from article PMC8112867.
No constants are given. Whether binding was seen depends on the method and setting. In cells and extracts the contact can be indirect. Some results given as binding are weak or reduced against the parent protein; the word gives no strength.

Protein sequences, listed by entry. Tags and fused reporters are not part of them.
UniProt Q8R3S6: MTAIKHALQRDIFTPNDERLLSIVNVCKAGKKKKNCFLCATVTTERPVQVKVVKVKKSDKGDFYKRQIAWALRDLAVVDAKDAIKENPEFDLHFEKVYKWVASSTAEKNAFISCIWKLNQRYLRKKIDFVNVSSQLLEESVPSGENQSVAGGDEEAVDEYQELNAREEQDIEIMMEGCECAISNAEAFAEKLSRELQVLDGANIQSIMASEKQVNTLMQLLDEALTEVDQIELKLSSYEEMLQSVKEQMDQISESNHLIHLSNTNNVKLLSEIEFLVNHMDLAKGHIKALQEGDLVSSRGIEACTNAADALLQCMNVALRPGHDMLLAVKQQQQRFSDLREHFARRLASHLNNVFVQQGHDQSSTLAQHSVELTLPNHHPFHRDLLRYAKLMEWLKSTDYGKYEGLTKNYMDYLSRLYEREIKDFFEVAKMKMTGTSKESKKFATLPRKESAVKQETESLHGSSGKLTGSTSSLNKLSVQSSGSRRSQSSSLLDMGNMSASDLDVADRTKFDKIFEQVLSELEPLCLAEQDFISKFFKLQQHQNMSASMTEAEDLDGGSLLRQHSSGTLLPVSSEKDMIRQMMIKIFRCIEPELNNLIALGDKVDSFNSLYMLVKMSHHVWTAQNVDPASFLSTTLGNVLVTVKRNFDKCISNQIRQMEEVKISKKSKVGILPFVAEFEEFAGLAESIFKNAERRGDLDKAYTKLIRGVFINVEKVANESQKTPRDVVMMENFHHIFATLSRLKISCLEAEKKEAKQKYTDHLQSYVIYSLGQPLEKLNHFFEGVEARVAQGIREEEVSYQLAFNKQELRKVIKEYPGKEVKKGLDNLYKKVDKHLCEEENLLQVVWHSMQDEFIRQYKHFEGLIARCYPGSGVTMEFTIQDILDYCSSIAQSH

Target: T1, endogenous SNAP23 (mouse (endogenous in testis)) (UniProt O09044)
T1 sequence: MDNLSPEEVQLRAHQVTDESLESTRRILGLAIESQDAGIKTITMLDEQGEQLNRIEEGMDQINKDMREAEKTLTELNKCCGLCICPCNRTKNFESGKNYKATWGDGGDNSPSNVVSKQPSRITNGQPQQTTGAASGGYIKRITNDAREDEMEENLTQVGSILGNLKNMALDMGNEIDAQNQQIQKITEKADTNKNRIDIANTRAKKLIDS
Test: co-IP; adult Exoc1 PA-N/PA-N mouse testis lysate (1.5 mg total protein; 20 mM Tris-HCl, 150 mM NaCl, 1 mM EDTA, 1% triton X-100); anti-SNAP23 antibody or normal rabbit IgG 1 hr at 4°C, Protein G magnetic beads; PA-EXOC1 detected by anti-PA-tag blot

- binding: binds
Substance: PA-tagged EXOC1 (Exoc1 PA-N knock-in) (from UniProt Q8R3S6 1-894)
